Test results reported in PubChem BioAssay AID2685 (National Center for Advancing Translational Sciences (NCATS), 2010).
This is one part of the list. The main result of the screen is listed elsewhere. These columns were measured beside it and carry no call. The list favours compounds with an active or inconclusive main result. Words in brackets tell the shape of the fitted curve; partial curves, single points and poor fits give uncertain potencies.

Assay: qHTS Assay for Lipid Storage Modulators in Drosophila S3 Cells;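 on cell number change: cells counted by Cell Tracker Red CMTPX staining in the red channel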
Details: BODIPY lipid droplet fluorescence, 18-24 h; for cell number change: measured here: cell count max response, cells fed with added oleic acid
In short: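 Laser-scanning cytometry quantifies lipid droplet accumulation (500–530 nm total intensity; droplet/cell object ratio) in oleic acid-fed (400 uM added) Drosophila S3 cells treated with a concentration series. 20 uM Triacsin C defined 100% inhibition.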

[1] = measured here: lipid fluorescence (Fed channel) AC50, cells fed with added oleic acid
[2] = measured here: cell number channel AC50, cells fed with added oleic acid

| Structure (SMILES) | cell number change [%] | AC50 [1] | AC50 [2] |
| --- | --- | --- | --- |
| O=C(NC1CCCCC1)c1ccc(CS(=O)Cc2ccccc2Cl)o1 (configuration not stated) | 19.4 | 2.31 µM [rising, full curve] |  |
| COc1ccc(NC(=O)CN(C)C(=O)CSCc2c(C)noc2C)cc1 | -11.3 |  |  |
| COc1ccc(NC(=O)COC(=O)c2c(-c3ccccc3)noc2C)cc1 | -6.24 | 0.0146 µM [falling, partial curve, poor fit] |  |
| CCOC(=O)CC(=O)CSc1nc(C)cc(-c2cccnc2)c1C#N | 4.72 | 13 µM [rising, partial curve, poor fit] |  |
| O=C(O)CC12CC3CC(C1)CC(n1ncc(NCc4ccccc4Cl)c(Cl)c1=O)(C3)C2 | -44.9 | 29.1 µM [falling, partial curve, poor fit] | 9.2 µM [falling, partial curve] |
| COC(=O)c1ccccc1NC(=O)c1cc2nc(C3CC3)cc(C(F)(F)F)n2n1 | -15.5 | 0.0206 µM [falling, full curve, poor fit] |  |
| O=C(O)c1cccc(NC2=C(Cl)C(=O)c3ccccc3C2=O)c1 | -47 |  | 29.1 µM [falling, single point] |
| O=C(O)c1ccc(-c2ccccc2)[nH]1 | -14 | 1.64 µM [falling, full curve, poor fit] | 6.51 µM [falling, single point] |
| COCC(C)n1c(SCC(=O)NC(=O)Nc2ccc3c(c2)OCCO3)nc2ccccc2c1=O (configuration not stated) |  | 0.291 µM [rising, partial curve, poor fit] |  |
| CC(=O)c1c(C)[nH]c(C(=O)OC(C)C(=O)Nc2ccc(C)c(S(=O)(=O)N3CCOCC3)c2)c1C (configuration not stated) | 39 | 20.6 µM [rising, partial curve] | 29.1 µM [rising, single point] |
| COc1cc(OC)c(NS(=O)(=O)c2ccc(Cl)c(C(=O)OC(C)C(=O)N3CCCC3)c2)cc1Cl (configuration not stated) | -1.5 | 20.6 µM [rising, partial curve] |  |
| CCOc1cc([C@H]2[C@@H]3CCCC[C@]3(O)CCN2CC(=O)NCc2ccco2)ccc1O | -3.44 |  |  |
| COc1cccc(/C=C/C(=O)NNC(=O)c2ccco2)c1OC | -17.4 |  |  |
| COc1c(Cl)cnn(-c2cccc(C)c2)c1=O | 3.88 | 1.46 µM [rising, partial curve] |  |
| O=C(c1cc(-c2cccnc2)nc2ccc(Cl)cc12)N1CCN(S(=O)(=O)c2cccs2)CC1 | -5.95 | 6.51 µM [rising, single point] |  |
| CCCCC1CCC(C(=O)N2CCOCC2)CC1 (configuration not stated) | -30.7 | 29.1 µM [rising, single point] | 5.8 µM [falling, full curve, poor fit] |

Given as tab-separated lines: entries from further up.
Structure (SMILES)	cell number change [%]	AC50 [1]	AC50 [2]
COc1ccc(NC(=O)CN(C)C(=O)CSCc2c(C)noc2C)cc1	-11.3		
COc1ccc(NC(=O)COC(=O)c2c(-c3ccccc3)noc2C)cc1	-6.24	0.0146 µM [falling, partial curve, poor fit]	
